PubChem BioAssay AID1508600 (Functional Genomics Laboratory (NCATS/FGL), 2020)
The campaign covered roughly 53,000 sequences. About 3,700 (7%) were called active.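 Rule for the calls: active = gene knockdowns whose robust z-score for IL-1 alpha signal is at least 2 or at most -2, so actives lie on both sides; inactive = the rest.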 The list shows a part of the results.

Experiment: Components of the Cytosolic LPS Sensing Pathway: Gene Identification via Genome-wide siRNA Screen;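 note: robust z of the log signal after scaling to non-targeting control siRNA wells of the plate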
Conditions: RAW264.7 macrophages, IL-1a HTRF, actives lie on both sides, screened at 100 nM (by protocol), cells primed 5 h with Pam3CSK4 first
Summary of the method: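 Cells (RAW264.7, 1×10^4 per well) were transfected with siRNA at 100 nM and cultured 48h at 37 degrees C. Pam3CSK4 was added for 5 hours; LipidA transfection followed for 24 hour. IL-1a was then measured by HTRF.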

| Sequence | z-score |
| --- | --- |
| CCCUCAGGACACGUUUUAGTT against Wdsub1 | active: -2.14 |
| GGCACAGCUUGCUGAAGCUTT against Atp11b | inactive: -1.76 |
| GGCCAAGAUCCAGAAGAAGTT against Ush1g | inactive: -1.45 |
| UUUCCCGACCUCUCCACUATT against Olfr463 | inactive: 0.216 |
| GCUGGCUUCAUUUUACUUATT against Degs1 | inactive: 0.126 |
| GCCAAGAUCCCACCAGUUATT against Neurl1b | inactive: 0.639 |
| CUUUUCAAGCAGGAGAGUUTT against Mterf1a | inactive: -0.0711 |
| GGUGGAGAAGAGUUUCUGCTT against Gpr132 | inactive: 0.375 |
| GCUCUGGAGGAAAAAAAUATT against Olfr1255 | inactive: 0.26 |
| CCCACCAGCGGAAUUUGAUTT against Acp7 | inactive: 0.826 |
| GGAACUGCUUACGAAAUACTT against Lama4 | active: -2.33 |
| GGCAGAUAUUUAGAUGAUGTT against Pdyn | inactive: -0.932 |
| GCAUGAAGGCAAUAUUUCATT against Zfp758 | inactive: 0.574 |
| GGAAUUUAGGAAGCAAAAGTT against Rcc2 | inactive: -0.533 |
| GGCUAGGACCCAAGUUCUATT against Thra | inactive: 1.69 |
| CCCUAUUGCUAAAUCCUAATT against Gprin3 | inactive: -1.19 |
| GGCUCUUUAUGGACAUGGCTT against Tac1 | inactive: 0.447 |
| CCAGGAACAGCUAUCGGAUTT against Homer2 | inactive: -0.271 |
| CUACCUGUUUCCUAGCUUGTT against Drosha | inactive: -0.854 |
| CGGAUUCAGUAUUAGCAAUTT against Ogt | active: -2.4 |
| GGACUUUUGUGCUGUAUUUTT against Tfcp2l1 | inactive: -1.52 |
| GGAAGAGGACCAAAGUGCUTT against Pnpla7 | inactive: 1.75 |
| GCUGCUUUAUCGAGUGGUUTT against Capn8 | inactive: 0.841 |

| Sequence | z-score |
| --- | --- |
| GGAAAGCAGACAUCGACCUTT against Rps18 | inactive: -0.848 |
| CCCUCCGAAAAUUUUUCUGTT against Defb14 | inactive: -0.363 |
| UCAUUCUACCUGGAACCGGTT against Vstm2l | inactive: 0.71 |
| GCCAGUUGUGACAAAACUATT against Abca1 | inactive: -1.22 |
| GCAGUGAACAGCUAUUAACTT against Styx | inactive: 0.695 |
| GGUGCUGAAGAAGCACCAUTT against Stat5a | inactive: 0.271 |
| GCCCAAAUGAGACUACUUUTT against Ces1e | inactive: -1.24 |
| GCUGCCGUUUAAAUAUAUGTT against D10Wsu102e | inactive: 0.31 |
| GGAUAACUACAGGAAUAAGTT against Spam1 | inactive: -0.701 |
| CCUAAAGAAAGGUUAAAGATT against Sfr1 | inactive: -0.763 |
| CCCAUUGCCAGUACAACUUTT against Cxcr3 | inactive: -0.897 |
| CCUUGUUUUUCACAAAUCATT against Usp7 | inactive: -0.182 |
| UGCUGUUAUCUGCUUACAGTT against Tomm6 | inactive: -0.863 |
| GGACAGAAAGUUGUCUUUATT against Fam20b | inactive: 1.44 |
| GGAAUGAGAUUAUUUCUUGTT against Astn1 | inactive: -0.114 |
| AAUAACACGUCAGUUUAUCTT against A530064D06Rik | inactive: 0.263 |
| GGUACCAUGAAGGAUUUAUTT against Tspan2 | active: 3.24 |
| GGGCCAUGACAGAAUUCCATT against Ahsp | inactive: -1.47 |
| CGGAAACAAUGCAAUGGCATT against Bcl11a | inactive: -0.533 |
| GGAAAAUGGAAUUUGGUCCTT against Il12b | inactive: 0.881 |
| GCACACUCUGUUAUAAAAUTT against Osbpl2 | inactive: -0.753 |
| CUACUAUAGUGUAAUGGUGTT against Psg18 | inactive: 0.307 |
| CGACUCAAUUUCUGUGGCCTT against Olfr525 | inactive: -1.96 |

Reprinted at random: four records from the list

| Sequence | z-score |
| --- | --- |
| GGUGGAGAAGAGUUUCUGCTT against Gpr132 | inactive: 0.375 |
| GCUGGCUUCAUUUUACUUATT against Degs1 | inactive: 0.126 |
| UCAUUCUACCUGGAACCGGTT against Vstm2l | inactive: 0.71 |
| GCCCAAAUGAGACUACUUUTT against Ces1e | inactive: -1.24 |

The list continues:

| Sequence | z-score |
| --- | --- |
| GGUGUUCAAAAGUGGACUUTT against Pnck | inactive: -0.771 |
| GCCUAUACAACCCUAUUGUTT against Kazn | inactive: -0.879 |
| CGCCUUUAGUAAGGAUCACTT against Tube1 | inactive: -0.76 |
| GCUCACUAACUUUUACAAGTT against Fam166c | inactive: 0.419 |
| GCAAUCUCCAACAAACUCUTT against Gemin7 | inactive: 1.23 |
| GGGAAGUGCCUCCUAUACUTT against Slc25a39 | inactive: -0.405 |
| GCUGACUUCACAUUUGGCUTT against Mms19 | inactive: -0.24 |
| GGCAACUGGAAAUCUGGGATT against Adar | inactive: -0.153 |
| GGAGGUGUUGGCUCACAACTT against Fam234b | inactive: -0.527 |
| GAAGAUGCCACGCUAAAAATT against Adam34 | active: 2.73 |
| GCAGUGCAGUGGAUCAAAUTT against Erap1 | inactive: 1.16 |
| GGCCUUUUACUGUUCUGUGTT against Zfp273 | inactive: -0.729 |
| GGAACUUUGUUAAAAUGGATT against 4932414N04Rik | inactive: -0.979 |
| GGAGGGAAGCGAGAGUUUUTT against Emilin2 | active: 2.25 |
| CCUGUUUCGUAGAUUGUUUTT against Eftud2 | inactive: -0.35 |
| GGUGAAGAAAGCACUGUUUTT against Olfr980 | inactive: 0.0649 |
| GGAGGAAGGCUUCCUAAAGTT against Slc25a27 | inactive: 0.666 |
| GGAACAACAUUGUUCUAAATT against Fstl5 | inactive: 0.759 |
| GGCCAUCAUUGAGGAAUAUTT against Eif4g1 | inactive: -0.81 |
| GGACAGCUCUCUUUAGUCUTT against Erf | inactive: -1.78 |
| GGAUGCUUGUGGACCUGUGTT against Olfr1123 | inactive: 1.14 |
| GGCCUCAAAUACCAUAACATT against Zfp941 | inactive: 0.000237 |
